Laboratory results from PubChem BioAssay AID651640 (Broad Institute, 2012).
“And” between values parts separate entries of the source, which are not always exact repeats. Identical values can stand only once. Among all 350,000 compounds or so, about 6,000 (1.7%) were called active. Inconclusive results, whose numbers are uncertain, are shown with a selection of clear calls. No stated cut-off is given here; in the data, active means CPE inhibition above about 20% (passing the limit was not always enough); inconclusive means no clear call, values can overlap the other calls; tested in BHK-21 cells.

Assay: protection of cells from dengue 2 killing – plate reader, single concentration, primary screen (AID 651640);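 further: 0% = median of neutral control wells and 100% = median of positive control wells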
Conditions: DENV2-infected cells, cytopathic effect rescue, at 9.99 µM, hits give high values

Structure (SMILES) | CPE inhibition
Cc1ccc(CS(=O)(=O)Cc2ccc(C(=O)NCc3cccs3)o2)cc1 | inconclusive: 21.2%
O=C(Nc1cc(F)cc(F)c1)c1sc(Cl)nc1-c1ccccc1 | active: 68.2%
CCS(=O)(=O)N1CCCCN2[C@H](CO)[C@H](c3ccc(-c4ccc(C#N)cc4)cc3)[C@H]2C1 | active: 55.5%
COCCCN(C(=O)Nc1ccc(C)c(C)c1)C(C)c1ccccn1 (centres undefined) | inconclusive: 32.7%
Cc1ccc(C)c(C(C)NC(=O)C2CC=CCC2C(=O)O)c1 (centres undefined) | inconclusive: 21.4%
N#Cc1nc(Cl)c(Cl)c(NN)c1Cl | inconclusive: 49.4%
S=c1sc2c(N3CCOCC3)ncnc2n1-c1ccccc1 | inconclusive: 27.4%
CNC(=O)c1ccc(NC(=O)CCNC(=O)Nc2ccccc2)cc1 | inconclusive: 37.7%
COc1ccc(S(=O)(=O)Nc2cccc3c2O[C@H](CN(C)S(C)(=O)=O)[C@H](C)CN([C@H](C)CO)C3=O)cc1 | inactive: 1.97%
O=C(NCCCC1CCCC1)C1CCC(=O)N(Cc2cccc(F)c2)C1 (centres undefined) | inconclusive: 50.8%
COc1ccccc1NC(=O)N1CC(=O)N2[C@H](C1)[C@@H](c1ccc(C#Cc3ccc(F)cc3)cc1)[C@@H]2CO | active: 68.6%
C[C@H](CO)N1C[C@H](C)[C@H](CN(C)C(=O)Nc2ccccc2)Oc2ncc(C#CC(C)(C)O)cc2C1=O | active: 26%
COc1cc(NC(=O)Cn2cnc3c(NCc4ccccc4)ncnc32)cc(OC)c1OC | inconclusive: 47.6%
CCCCn1c(N)c(N(Cc2ccccc2OC)C(=O)c2sccc2C)c(=O)[nH]c1=O | inconclusive: 33.4%
CCOc1ccc(/C=C/c2[nH]c(=O)[nH]c(=O)c2[N+](=O)[O-])cc1 | inconclusive: 20.4%
CN1C(=O)c2cc(NC(=O)c3ccc(F)cc3)ccc2OC[C@H]2O[C@@H](CC(=O)NCC3CCCCC3)CC[C@@H]21 | inconclusive: 33.4%
Cc1ccc(CS(=O)(=O)CC(C)(O)c2ccccc2)cc1 (centres undefined) | inconclusive: 39.6%
CN(C)c1ccc([C@@H]2[C@@H]([N+](=O)[O-])[C@H]3C=Cc4ccccc4N3[C@H]2C(=O)c2ccc(Cl)cc2)cc1 | inconclusive: 52.7%
CC(C)NC(=O)Nc1cccc2c1O[C@H](CN(C)Cc1ccc(C(F)(F)F)cc1)[C@H](C)CN([C@@H](C)CO)C2=O | inconclusive: 35.1%
Cc1csc(SCC(=O)NC2CCCC2)n1 | inconclusive: 43.4%
CCN=C1NC(c2ccc(C(F)(F)F)cc2)C(C(=O)OC)=C(C)N1Cc1cccc(C(F)(F)F)c1 (centres undefined) | inactive: -6.33%
Cc1ccc(S(=O)(=O)Nc2ccc3c(c2)C(=O)N([C@H](C)CO)C[C@H](C)[C@@H](CN(C)C)O3)cc1 | inconclusive: 21.8%

Structure (SMILES) | CPE inhibition
COc1ccc2c3c([nH]c2c1)[C@@H](CO)N(C(=O)c1cccc(F)c1)CC31CN(C(=O)c2ccccc2)C1 | inactive: -4.93%
OCCNc1nc(Nc2ccc(Cl)cc2)nc(N2CCCC2)n1 | inactive: 2.43%
CC(C)N(C(=O)[C@H]1C[C@H](CC(=O)NCc2cccc(C(F)(F)F)c2)C(=O)N2CCc3c([nH]c4ccc(Cl)cc34)[C@]12C)C(C)C | inconclusive: 26.2%
Cc1ccc(S(=O)(=O)N(C)C[C@@H]2OCCCC[C@@H](C)Oc3ccc(NS(=O)(=O)c4ccc(Cl)cc4)cc3C(=O)N([C@H](C)CO)C[C@@H]2C)cc1 | inconclusive: 26.8%
Cc1ccc(S(=O)(=O)N(Cc2cccc([N+](=O)[O-])c2)C(=O)N2CCN(C)CC2)cc1 | active: 56.8%
C[C@H](CO)N1C[C@H](C)[C@H](CN(C)Cc2ccncc2)Oc2c(NC(=O)NC3CCCCC3)cccc2C1=O | inactive: 15.5%
COCCCN(Cc1ccco1)C(=O)Cn1ncc2c([nH]c3ccccc32)c1=O | active: 24.9%
Cc1ccc(S(=O)(=O)Nc2ccc3c(c2)C(=O)N([C@H](C)CO)C[C@@H](C)[C@H](CN(C)S(C)(=O)=O)OCCCC[C@@H](C)O3)cc1 | active: 36%
N/C(=N\OC(=O)c1cccs1)c1cccnc1 | inconclusive: 43.5%
C[C@@H]1CN([C@H](C)CO)C(=O)Cc2cc(NS(=O)(=O)c3ccccc3)ccc2O[C@@H]1CN(C)Cc1ccc(Cl)c(Cl)c1 | inactive: 7.65%
CC(C)(C)[S@](=O)N1Cc2cc(C(=O)N3CCCCC3)nc(-c3cccc(-c4cccc(C#N)c4)c3)c2[C@@H]1CCO | inconclusive: 40.7%
O=C(c1ccccn1)N1C[C@@H]2[C@H](c3ccccc31)[C@H](CO)N2C(=O)C1CCCCC1 | inconclusive: 44.5%
CC1CCCCC12NC(=O)N(CC(=O)Nc1ccc(Cl)c(S(=O)(=O)N3CCOCC3)c1)C2=O (centres undefined) | inconclusive: 47.7%
C[C@H]1CN([C@@H](C)CO)C(=O)c2cccc(NC(=O)Nc3ccccc3)c2O[C@@H]1CN(C)Cc1ccc(C(=O)Nc2ccccc2N)cc1 | inactive: -4.13%
CN1C(=O)c2cc(NC(=O)Nc3ccccc3F)ccc2OC[C@@H]2O[C@H](CC(=O)NCc3ccc(-c4ccccc4)cc3)CC[C@H]21 | inconclusive: 50.2%
C[C@H]1Cn2cnc(C(=O)N3CCN(c4ccccc4)CC3)c2C(=O)N1 | inconclusive: 54.1%
COC(=O)c1ccc2nc(-c3cccc(Cl)c3)c(Cc3cccc(F)c3)n2c1 | inactive: -15.9%
O=C(Cc1ccccc1)N1C[C@H]2[C@@H](c3ccccc31)[C@@H](CO)N2C(=O)c1ccc(F)cc1 | inactive: -3.16%
C[C@@H]1CN([C@H](C)CO)C(=O)c2cc(NC(=O)Nc3ccc4c(c3)OCO4)ccc2O[C@@H]1CN(C)S(=O)(=O)c1ccc(F)cc1 | inconclusive: 21.9%
COc1ccc(-n2nnc3c(SCC(=O)Nc4ccccc4F)ncnc32)cc1 | inconclusive: 29.1%
COCC1CCN(C(=O)CCc2nnc(C3(c4ccc(Cl)cc4)CCC3)o2)CC1 | inconclusive: 29.3%
C[C@@H]1CCCCO[C@H](CN(C)Cc2ccc(Cl)c(Cl)c2)[C@@H](C)CN([C@H](C)CO)C(=O)c2cc(N(C)C)ccc2O1 | inactive: 0.31% and inactive: -1.34%
